Assay results published in PubChem BioAssay AID662 (National Center for Advancing Translational Sciences (NCATS), 2007).
Values joined by “and” are separate entries in the source; they are usually repeats but may differ in a detail not shown here. Equal values may be shown once. The list shows a part of the results. Shown are side measurements of this screen, not its main read-out; they come without a call. Compounds called inactive in the main read-out are mostly missing here. Potencies come from curve fits of mixed quality, noted in brackets.

Test: Cell signaling CRE-BLA (Fsk stim)
Details: CHO CRE-bla reporter (cAMP response element driving beta-lactamase), forskolin EC10, beta-lactamase ratio; measured here: 460 nm blue channel
In short: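 CRE-bla CHO reporter cells treated with compound titration plus EC10 NKH 477 (water-soluble forskolin), incubated 3 h at 37 °C; CCF4 loading 2 h at room temperature, 460/530 nm emission ratio read, AC50 values derived for positive or negative modulators.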

SMILES	AC50
COc1cccc2cc(C(=O)NC3CC(C)(C)NC(C)(C)C3)c(=O)oc12	0.00398 µM [falling, full curve, poor fit]
CCOc1ccc(-c2nc(C#N)c(N3CCCCCC3)o2)cc1	3.16 µM [rising, full curve]
O=C(O)C1CC(=O)N(Cc2ccc3c(c2)OCO3)C1 (stereo not drawn)	2.51 µM [falling, full curve]
O=C1CC(c2ccc(F)cc2)CC(O)=C1C=NCCN1CCN(C(=O)Nc2ccccc2)CC1 (stereo not drawn)	12.6 µM [rising, single point]
N#Cc1cccc(NC(=O)COc2ccc(-n3ccnc3)cc2)c1	5.01 µM [falling, single point]
Cc1nc(N2CCOCC2)[nH]c(=O)c1CCC(C)C	25.1 µM [falling, single point]
c1cc(-n2cnnn2)ccc1NC1=NCCC1	0.316 µM [falling, full curve]
CC(C)OC(=O)c1c(NC(=O)c2cccs2)sc2c1CCCC2	15.8 µM [rising, partial curve]
NS(=O)(=O)c1ccc(NC(=O)COC(=O)CSc2n[nH]c(-c3ccccc3)n2)cc1	1 µM [falling, full curve]
COc1ccc(N=c2oc3cc(O)ccc3cc2C(=O)NCC2CCCO2)c(OC)c1 (stereo not drawn)	12.6 µM [rising, partial curve]
CC(C)CC(=O)NCC(C)NC(=O)CC(C)C (stereo not drawn)	2.51 µM [rising, partial curve, poor fit]
CSc1nc(-c2ccco2)nn1C(=O)c1ccc(C)cc1	12.6 µM [falling, partial curve]
CCOC(=O)N1CCN(C(=O)CSCC(=O)N=c2sc3ccccc3n2C)CC1	0.1 µM [falling, single point]
CCOC(=O)c1sc(N)nc1-c1ccccc1	7.94 µM [rising, partial curve]
CCOC(=O)C1CCN(C(=O)c2ccc3c(c2)OCO3)CC1	25.1 µM [falling, single point]
OC(COc1ccc2ccccc2c1Cl)CN1CCOCC1 (stereo not drawn)	0.00398 µM [falling, full curve, poor fit]
CCOC(=O)COc1ccc(C2NC(C(=O)O)CS2)cc1 (stereo not drawn)	1.26 µM [falling, partial curve]
COCCN1Cc2cccc(C(=O)Nc3c(C)cccc3C)c2C1=O	0.251 µM [falling, full curve, poor fit]
COc1ccccc1C1C(C(=O)c2sc(C)nc2C)=C(O)C(=O)N1CCN1CCOCC1 (stereo not drawn)	5.01 µM [rising, single point]
O=C(Oc1ccccc1)N1CCC2(CCCN(c3ccccn3)C2)CC1	25.1 µM [rising, single point]
CC(=O)N1CCC2(CCCN(c3ccc(-c4ccccc4)cc3)C2)CC1	1.58 µM [rising, partial curve]
CN1C(=O)c2cccc3c(S(=O)(=O)NCc4ccco4)ccc1c23	25.1 µM [rising, partial curve]

SMILES	AC50
Cc1cc(N2CCN(C(=O)c3ccco3)CC2)n2nc(C)c(-c3ccccc3)c2n1	10 µM [rising, partial curve]
CC(C)CSc1nc2c(c(=O)[nH]c(=O)n2C)n1CC(O)COc1cccc2ccccc12 (stereo not drawn)	12.6 µM [rising, single point]
CC1=C(C#N)C(Nc2cccc(C)n2)(C(F)(F)F)C(=O)N1 (stereo not drawn)	0.316 µM [falling, full curve]
CCCC(=O)N(Cc1cc2cc(C)ccc2[nH]c1=O)c1ccccc1OC	5.01 µM [rising, single point]
O=C(Nc1sccc1C(=O)NCc1ccco1)c1cccnc1	10 µM [rising, partial curve]
CCc1ccccc1NC(=O)c1ccc(F)c(S(=O)(=O)N2CCC(C(N)=O)CC2)c1	5.01 µM [falling, single point]
COc1ccc(CC2S/C(=C(\C#N)C(=O)NCc3ccco3)N(c3ccc(C)cc3)C2=O)cc1 (stereo not drawn)	20 µM [rising, single point]
O=C(c1cnccn1)N1CCC2(CCCN(c3cccc(-c4ccccc4)c3)C2)CC1	25.1 µM [rising, single point]
Cc1ccc(-c2nn3c(-c4ccco4)nnc3c3ccccc23)cc1S(=O)(=O)N1CCOCC1	12.6 µM [rising, single point]
COc1ccc(-n2c(=O)c(-c3cccs3)nc3cnc(N4CCNCC4)nc32)cc1	3.16 µM [rising, full curve]
Cc1ccc2nnc(Cl)n2n1	3.16 µM [falling, partial curve, poor fit]
COc1cccc(NS(=O)(=O)c2c(C)cc(C)cc2C)c1	0.398 µM [falling, full curve]
COC(=O)[C@@]1(Cc2ccccc2)[C@H]2c3cc(C(=O)N4CCCC4)n(Cc4ccc(C)o4)c3C[C@H]2CN1C(=O)c1ccccc1	2 µM [rising, partial curve]
Nc1ccc(N=Nc2ccccc2)c(N)n1	10 µM [falling, partial curve] and 15.8 µM [falling, single point]
COc1ccc2[nH]cc(CCNc3ncnc4ccc(-c5cccc(C#N)c5)cc34)c2c1	2 µM [rising, full curve, poor fit]
Cc1ccc(OCCCC(=O)Nc2ccc3c(c2)OCO3)cc1	1 µM [falling, full curve, poor fit]
CCCn1c2c(c(O)c(C(=O)NC)c1=O)CCCC2	10 µM [rising, partial curve]
Cc1ccsc1CNn1cnnc1SCc1ccccc1F	0.00316 µM [falling, full curve, poor fit]
COCCn1c(C)cc(C(=O)COc2nc3ccccc3nc2C)c1C	25.1 µM [falling, single point]
O=C(Nc1ccc2c(c1)OCO2)c1cnn2c(C(F)(F)F)cc(-c3ccco3)nc12	3.98 µM [rising, partial curve]
CCCCCN(C(=O)NC(=O)Nn1cnnc1)S(C)(=O)=O	0.0501 µM [falling, partial curve]

Looked up by structure from above (2):
SMILES	AC50
COc1ccc(CC2S/C(=C(\C#N)C(=O)NCc3ccco3)N(c3ccc(C)cc3)C2=O)cc1 (stereo not drawn)	20 µM [rising, single point]
Cc1ccc2nnc(Cl)n2n1	3.16 µM [falling, partial curve, poor fit]
